Values joined by “and” are separate entries in the source; they are usually repeats but may differ in a detail not shown here. Equal values may be shown once. This continues a long series; more values of the same kind are listed elsewhere.
Tested on: K. pneumoniae ATCC 43816 (WT)
Assay: Checkerboard assay levofloxacin x EPI, WT strain
Type: cell-based, Klebsiella pneumoniae
Conditions: individual replicates, listed as Lev
Method: MIC experiments were carried out according to the CLSI guidelines (CLSI [2023]). Overnight cultures were diluted to an OD600 = 0.001 in CAMHB followed by addition of efflux pump inhibitors (EPIs) at a final concentration of 100 µM. […] Plates were incubated at 37 °C for up to 20 h. Bacterial viability was evaluated using the resazurin microtitre assay (REMA) and measured by fluorescence using a Tecan Spaert multimode plate reader (Ex: 530 nm Em: 590 nm). MICs were defined as the concentration that prevented 90% of resazurin turnover compared to the non-treated bacteria.
Bacterial suspensions, incubation and plate readouts were carried out as described above.

C[C@H]1COc2c(N3CCN(C)CC3)c(F)cc3c(=O)c(C(=O)O)cn1c23 [Levofloxacin]
percentage resazurin turnover (Lev 0.24 ng/mL + EPI 0.00 uM): 118% and 111% and 56% and 82% and 94% and 28%
percentage resazurin turnover (Lev 0.49 ng/mL + EPI 0.00 uM): 87% and 92% and 84% and 111% and 103% and 35%
percentage resazurin turnover (Lev 0.98 ng/mL + EPI 0.00 uM): 101% and 100% and 102% and 109% and 62%
percentage resazurin turnover (Lev 1.95 ng/mL + EPI 0.00 uM): 67% and 114% and 101% and 41%
percentage resazurin turnover (Lev 3.91 ng/mL + EPI 0.00 uM): 99% and 110% and 46%
percentage resazurin turnover (Lev 7.81 ng/mL + EPI 0.00 uM): 109% and 104% and 79%
percentage resazurin turnover (Lev 15.63 ng/mL + EPI 0.00 uM): 102% and 95% and 90%
percentage resazurin turnover (Lev 31.25 ng/mL + EPI 0.00 uM): 69% and 59% and 100%
percentage resazurin turnover (Lev 62.50 ng/mL + EPI 0.00 uM): -1.23% and -0.588% and -0.101%
percentage resazurin turnover (Lev 500.00 ng/mL + EPI 0.00 uM): -1.06% and -0.604% and 0.0687%
percentage resazurin turnover (Lev 1000 ng/mL + EPI 0.00 uM): -0.859% and -0.268% and -0.0599%

From publication PMC10897476, “Pyridylpiperazine efflux pump inhibitor boosts in vivo antibiotic efficacy against K. pneumoniae” (EMBO Molecular Medicine, 2023)
